Data as given in PubChem BioAssay AID1259308 (NCATS, 2017).
Shown is one part, drawn at random, of about 59,000 reagents. Over the whole deposit, about 1,510 (2.6%) were called active. 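Calls use total luciferase alone and ignore viability, so some active siRNAs may act by altering cell number.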 The numbers tell different reagents against one gene apart. Further read-outs or replicates are left out here.

Assay: 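Candidate targets for better recombinant protein yield in mammalian cells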 (primary screen)
System: human HEK293 embryonic kidney cells stably expressing firefly luciferase (HEK-CMV-Luc2-Hygro)
Reagents: single siRNA against human genes, 0.8 pmol siRNA per well
Timing: 72 h
Measured: 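Luciferase light (ONE-Glo) measured on one replicate plate set and viability (CellTiter-Glo) on the other, scaled to a negative control siRNA, with robust z-scores and luciferase per cell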
Scale: total luciferase, z-score: higher = more reporter protein produced
Hit rule: 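An siRNA counts as active if its total luciferase robust z-score exceeds 3; genes with two or more such siRNAs out of three were retested with fresh siRNAs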
Calls: active = raised luciferase; inactive = no rise

total luciferase, z-score, by gene and reagent
LEFTY2 (left-right determination factor 2): #1 -0.454 inactive; #2 -2.11 inactive; #3 1.02 inactive
ADCY8 (adenylate cyclase 8): #1 -0.546 inactive; #2 0.154 inactive; #3 1.35 inactive
IL27 (interleukin 27): #1 -0.256 inactive; #2 0.276 inactive; #3 -1.4 inactive
SIRPG (signal regulatory protein gamma): #1 -0.0747 inactive; #2 -0.0517 inactive; #3 1.52 inactive
LCA5 (lebercilin LCA5): #1 -0.703 inactive; #2 -0.312 inactive; #3 -0.214 inactive
RAD21-AS1 (RAD21 antisense RNA 1): #1 0.69 inactive; #2 -1.17 inactive; #3 0.869 inactive
CD300LD-AS1 (CD300LD antisense RNA 1): #1 1.79 inactive; #2 -2.21 inactive; #3 -0.699 inactive
CSNK1E (casein kinase 1 epsilon): #1 2.19 inactive; #2 -0.468 inactive; #3 -1.44 inactive
POLG2 (DNA polymerase gamma 2, accessory subunit): #1 0.0997 inactive; #2 0.624 inactive; #3 1.46 inactive
EIF3I (eukaryotic translation initiation factor 3 subunit I): #1 -2.53 inactive; #2 -2.77 inactive; #3 -2.25 inactive
ATP6V1B1 (ATPase H+ transporting V1 subunit B1): #1 0.481 inactive; #2 -0.446 inactive; #3 -0.532 inactive
CHRNB4 (cholinergic receptor nicotinic beta 4 subunit): #1 -1.05 inactive; #2 -0.813 inactive; #3 -0.0179 inactive
DNAJC15 (DnaJ heat shock protein family (Hsp40) member C15): #1 0.0497 inactive; #2 0.26 inactive; #3 -0.71 inactive
MEAF6 (MYST/Esa1 associated factor 6): #1 -0.762 inactive; #2 0.537 inactive; #3 0.103 inactive
LAG3 (lymphocyte activating 3): #1 1.51 inactive; #2 -0.16 inactive; #3 -1.15 inactive
NPHP1 (nephrocystin 1): #1 -0.212 inactive; #2 -0.791 inactive; #3 -0.0586 inactive
MAPKAPK2 (MAPK activated protein kinase 2): #1 0.252 inactive; #2 -0.792 inactive; #3 1.67 inactive
MSANTD3 (Myb/SANT DNA binding domain containing 3): #1 0.682 inactive; #2 1.01 inactive; #3 0.406 inactive
CETN2 (centrin 2): #1 -0.369 inactive; #2 -0.0879 inactive; #3 -0.247 inactive

Looked up above:
RAD21-AS1 (RAD21 antisense RNA 1) #2, activity call → inactive
EIF3I (eukaryotic translation initiation factor 3 subunit I) #1, activity call = inactive
For “activity call”, POLG2 (DNA polymerase gamma 2, accessory subunit) #1 shows inactive
Result for EIF3I (eukaryotic translation initiation factor 3 subunit I) #2 in “activity call”: inactive
Value for POLG2 (DNA polymerase gamma 2, accessory subunit) #3 in “activity call”: inactive
Entry of CETN2 (centrin 2) #2 under “total luciferase, z-score”: -0.0879
